Test results taken from patent US20110294810A1, “SUBSTITUTED (PYRIDYL)-AZINYLAMINE DERIVATIVES AS PLANT PROTECTION AGENTS” (priority 2008, published 2011).
Some results were stated once for a whole list of compounds, not compound by compound. At least one compound was matched to its structure with a doubt left.

Tests used:
Pyrenophora teres = assay: In vivo test on Pyrenophora teres (barley net blotch); details: 500 ppm, barley plants sprayed 24 hours before contamination, grading 12 days after contamination
[1] = system: Mycosphaerella graminicola; assay: In vivo test on Mycosphaerella graminicola (wheat leaf spot); details: 500 ppm, wheat plants sprayed 24 hours before contamination, grading 21 to 28 days after contamination
Alternaria brassicae = assay: In vivo test on Alternaria brassicae (leaf spot of crucifers), radish plants; details: 500 ppm, radish plants sprayed 24 hours before contamination, grading 6 to 7 days after contamination

## CC(C)(C)OC(=O)NCc1cc(-c2ncnc(Nc3cccc(Cl)c3)n2)ccn1 [Compound C1]
Pyrenophora teres
  protection (good, at least 70%): at least 70%

## CC(=O)NCc1cc(-c2ccnc(Nc3cccc(Cl)c3)n2)ccn1 [Compound A4]
Pyrenophora teres
  protection (good, at least 70%): at least 70%

## O=C(NCc1cc(-c2ccnc(Nc3cccc(Cl)c3)n2)ccn1)C1CC1 [Compound A12]
Pyrenophora teres
  protection (good, at least 70%): at least 70%

## CC(C)CC(=O)NCc1cc(-c2ccnc(Nc3cccc(Cl)c3)n2)ccn1 [Compound A9]
[1]
  protection (good, at least 70%, or total): at least 70%

## CCCC(=O)NCc1cc(-c2ccnc(Nc3cccc(Cl)c3)n2)ccn1 [Compound A5]
Alternaria brassicae
  protection (good, at least 70%): at least 70%
Pyrenophora teres
  protection (good, at least 70%): at least 70%
[1]
  protection (good, at least 70%, or total): at least 70%

## CC(C)=CC(=O)NCc1cc(-c2ccnc(Nc3cccc(Cl)c3)n2)ccn1 [Compound A10]
[1]
  protection (good, at least 70%, or total): at least 70%

## C=COC(=O)NCc1cc(-c2ncnc(Nc3cccc(Cl)c3)n2)ccn1 [Compound C5]
Alternaria brassicae
  protection (good, at least 70%): at least 70%
Pyrenophora teres
  protection (good, at least 70%): at least 70%

## CC(N)c1cc(-c2ncnc(Nc3cccc(Cl)c3)n2)ccn1 (stereo not drawn) [Compound C2, 4-[2-(1-aminoethyl)pyridin-4-yl]-N-(3-chlorophenyl)-1,3,5-triazin-2-amine]
Pyrenophora teres
  protection (good, at least 70%): at least 70%

## COCc1cc(-c2ccnc(N(C)c3cccc(Cl)c3)n2)ccn1 [Compound A25, N-(3-chlorophenyl)-4-[2-(methoxymethyl)pyridin-4-yl]-N-methylpyrimidin-2-amine]
Pyrenophora teres
  protection (good, at least 70%): at least 70%
[1]
  protection (good, at least 70%, or total): at least 70%

## ClCc1cc(-c2ccnc(Nc3cccc(Cl)c3)n2)ccn1 [Compound A15, 4-[2-(chloromethyl)pyridin-4-yl]-N-(3-chlorophenyl)pyrimidin-2-amine]
Alternaria brassicae
  protection (good, at least 70%): at least 70%
Pyrenophora teres
  protection (good, at least 70%): at least 70%
[1]
  protection (good, at least 70%, or total): at least 70%

## CC(C)C(=O)NCc1cc(-c2ccnc(Nc3cccc(Cl)c3)n2)ccn1 [Compound A2, N-[(4-{2-[(3-chlorophenyl)amino]pyrimidin-4-yl}pyridin-2-yl)methyl]-2-methyl propanamide]
Alternaria brassicae
  protection (good, at least 70%): at least 70%
Pyrenophora teres
  protection (good, at least 70%): at least 70%
[1]
  protection (good, at least 70%, or total): at least 70%

## CCOC(=O)NCc1cc(-c2ncnc(Nc3cccc(Cl)c3)n2)ccn1 [Compound C4, ethyl[(4-{4-[(3-chlorophenyl)amino]-1,3,5-triazin-2-yl}pyridin-2-yl)methyl]carbamate]
Pyrenophora teres
  protection (good, at least 70%): at least 70%

## CC(C)(C)C(=O)NCc1cc(-c2ccnc(Nc3cccc(Cl)c3)n2)ccn1 [Compound A13]
Alternaria brassicae
  protection (good, at least 70%): at least 70%

## COCC(=S)NCc1cc(-c2ccnc(Nc3cccc(Cl)c3)n2)ccn1 [Compound A16]
Alternaria brassicae
  protection (good, at least 70%): at least 70%

## OCc1cc(-c2ccnc(Nc3cccc(Cl)c3)n2)ccn1 [Compound A14, (4-{2-[(3-chlorophenyl)amino]pyrimidin-4-yl}pyridin-2-yl)methanol]
Alternaria brassicae
  protection (good, at least 70%): at least 70%
Pyrenophora teres
  protection (good, at least 70%): at least 70%

## NCc1cc(-c2ccnc(Nc3cccc(Cl)c3)n2)ccn1 [Compound A1, 4-[2-(aminomethyl)pyridin-4-yl]-N-(3-chlorophenyl)pyrimidin-2-amine]
[1]
  protection (good, at least 70%, or total): at least 70%

## CCC(C)CNC(=S)NCc1cc(-c2ccnc(Nc3cccc(Cl)c3)n2)ccn1 (stereo not drawn) [Compound A6, 1-[(4-{2-[(3-chlorophenyl)amino]pyrimidin-4-yl}pyridin-2-yl)methyl]-3-(2-methylbutyl)thiourea]
[1]
  protection (good, at least 70%, or total): at least 70%

## O=C(NCc1cc(-c2ccnc(Nc3cccc(Cl)c3)n2)ccn1)C1CCC1 [Compound A7]
Pyrenophora teres
  protection (good, at least 70%): at least 70%
